# The list shows a part of the results.
# B1: CcfD (Bacteroides fragilis), Q5L9G4 (protein)
# chain: MKKQNSIYTLLIALLCFVSSCDYLGVSDQLAGGLQNTEQVFDNVSYTKRWYANVFAGIPDYSGINSVNVGAFKNPWTGMCDELVVGYGNSSKYNNSDRNAANMGFHRYGDCYKYIRQANIFLQKAHPIMTTGTQGDQLLEDELTQMKANVRFMRAFYHYLLFEQYGPIILVKDKIYNATEDQDVPRNTVDEVIEYIDSELTAVASELTQEPIFEDKDYRAWPTKGVALAVRAKLWLYAASPLLNGGYREALSVTNPDGTRLFPDYDAGKWEKALAACKDFIDYAEAGRYELYKEYKDDNGAVIDPDKSVYNLFQKYTHEIIWATANNDWGGMNGDAFDRRIAPRCEKNGLGSTGVTQELVDAFYMKDGFPVSATAYLPQSTLYQEEGYGTYKDQNDNFSKKYTNVTVSNRYLNREPRFYNTVFFNGRQWPVSCNQVLFYNGGNSGVQEGQATLTGYMLFKRFNRSVSLTNPGVASQFRPSIIFRLADFYLMYAEAANEVNPNDARVLKYLNLVRERAGLPDIETLNPAIRGNQELQRAAIQRERQIELATEGQRYFDVRRWMIADKNGEGRQNGYVHGMNVRGESNDKEDFNRIVEASQIVFNRKMYLYPMPDSEMRKTKNLVQNPGW
# Tests used:
# Assay in all cases: glycan array binding signal (z-score within array); higher = stronger binding
# Settings in all cases: glycan notation: IUPAC condensed, linker removed
# [1] = biological target: Fuc(a1-2)Gal(b1-4)GlcNAc(b1-3)Gal(b1-4)GlcNAc(b1-2)Man(a1-3)[Fuc(a1-2)Gal(b1-4)GlcNAc(b1-3)Gal(b1-4)GlcNAc(b1-2)Man(a1-6)]Man(b1-4)GlcNAc(b1-4)GlcNAc
# Method in brief: (§1)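 Glycan array binding is given as a within-array Z-score, which can be read as non-binding when negative. The arrays, 3228 of them, came from the Consortium for Functional Glycomics database and were retained only where the protein sequence was available. Z-scores were averaged across arrays of the same protein sequence at different concentrations or buffers and across linkers.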
# [2] = biological target: Fuc(a1-2)Gal(b1-4)GlcNAc(b1-3)Gal(b1-4)GlcNAc(b1-3)Gal(b1-4)GlcNAc
# Method in brief: as §1
# [3] = biological target: Fuc(a1-2)Gal(b1-4)GlcNAc(b1-3)GalNAc
# Method in brief: as §1
# [4] = biological target: Fuc(a1-2)Gal(b1-4)GlcNAc(b1-3)[Fuc(a1-2)Gal(b1-4)GlcNAc(b1-6)]GalNAc
# Method in brief: as §1
# [5] = biological target: Fuc(a1-2)Gal(b1-4)GlcNAc(b1-3)[Fuc(a1-3)[Gal(b1-4)]GlcNAc(b1-6)]Gal(b1-4)Glc
# Method in brief: as §1
# [6] = biological target: Fuc(a1-2)Gal(b1-4)GlcNAc(b1-6)GalNAc
# Method in brief: as §1
# [7] = biological target: Fuc(a1-2)Gal(b1-4)GlcNAc6S
# Method in brief: as §1
# [8] = biological target: Fuc(a1-2)Gal(b1-4)[Fuc(a1-3)]GlcNAc
# Method in brief: as §1
# [9] = biological target: Fuc(a1-2)Gal(b1-4)[Fuc(a1-3)]GlcNAc(b1-2)Man(a1-3)[Fuc(a1-2)Gal(b1-4)[Fuc(a1-3)]GlcNAc(b1-2)Man(a1-6)]Man(b1-4)GlcNAc(b1-4)[Fuc(a1-6)]GlcNAc
# Method in brief: as §1
# [10] = biological target: Fuc(a1-2)Gal(b1-4)[Fuc(a1-3)]GlcNAc(b1-2)[Fuc(a1-2)Gal(b1-4)[Fuc(a1-3)]GlcNAc(b1-4)]Man(a1-3)[Fuc(a1-2)Gal(b1-4)[Fuc(a1-3)]GlcNAc(b1-2)Man(a1-6)]Man(b1-4)GlcNAc(b1-4)GlcNAc
# Method in brief: as §1
# [11] = biological target: Fuc(a1-2)Gal(b1-4)[Fuc(a1-3)]GlcNAc(b1-3)Gal(b1-4)[Fuc(a1-3)]GlcNAc
# Method in brief: as §1
# [12] = biological target: Fuc(a1-2)Gal(b1-4)[Fuc(a1-3)]GlcNAc(b1-3)Gal(b1-4)[Fuc(a1-3)]GlcNAc(b1-3)Gal(b1-4)[Fuc(a1-3)]GlcNAc
# Method in brief: as §1
# [13] = biological target: Fuc(a1-2)Gal(b1-4)[Fuc(a1-3)]GlcNAc(b1-3)GalNAc
# Method in brief: as §1
# [14] = biological target: Fuc(a1-2)Gal(b1-4)[Fuc(a1-3)]GlcNAc(b1-3)[Neu5Ac(a2-6)Gal(b1-4)GlcNAc(b1-6)]Gal(b1-4)Glc
# Method in brief: as §1
# [15] = biological target: Fuc(a1-2)Gal3S(b1-4)GlcNAc
# Method in brief: as §1
# [16] = biological target: Fuc(a1-2)Gal6S(b1-3)GlcNAc
# Method in brief: as §1
# [17] = biological target: Fuc(a1-2)Gal6S(b1-3)GlcNAc6S
# Method in brief: as §1
# Fuc(a1-2)Gal6S(b1-4)Glc = biological target: Fuc(a1-2)Gal6S(b1-4)Glc
# Method in brief: as §1
# [18] = biological target: Fuc(a1-2)Gal6S(b1-4)Glc6S
# Method in brief: as §1
# Fuc(a1-2)[Gal(a1-3)]Gal = biological target: Fuc(a1-2)[Gal(a1-3)]Gal
# Method in brief: as §1
# [19] = biological target: Fuc(a1-2)[Gal(a1-3)]Gal(b1-3)GalNAc
# Method in brief: as §1
# [20] = biological target: Fuc(a1-2)[Gal(a1-3)]Gal(b1-3)GalNAc(b1-3)Gal(a1-4)Gal(b1-4)Glc
# Method in brief: as §1
# [21] = biological target: Fuc(a1-2)[Gal(a1-3)]Gal(b1-3)GlcNAc
# Method in brief: as §1
# [22] = biological target: Fuc(a1-2)[Gal(a1-3)]Gal(b1-3)GlcNAc(b1-2)Man(a1-3)[Fuc(a1-2)[Gal(a1-3)]Gal(b1-3)GlcNAc(b1-2)Man(a1-6)]Man(b1-4)GlcNAc(b1-4)GlcNAc
# Method in brief: as §1
# [23] = biological target: Fuc(a1-2)[Gal(a1-3)]Gal(b1-3)GlcNAc(b1-2)Man(a1-3)[Fuc(a1-2)[Gal(a1-3)]Gal(b1-3)GlcNAc(b1-2)Man(a1-6)]Man(b1-4)GlcNAc(b1-4)[Fuc(a1-6)]GlcNAc
# Method in brief: as §1
# [24] = biological target: Fuc(a1-2)[Gal(a1-3)]Gal(b1-3)GlcNAc(b1-3)GalNAc
# Method in brief: as §1
# [25] = biological target: Fuc(a1-2)[Gal(a1-3)]Gal(b1-3)GlcNAc(b1-6)GalNAc
# Method in brief: as §1
# [26] = biological target: Fuc(a1-2)[Gal(a1-3)]Gal(b1-4)Glc
# Method in brief: as §1
# [27] = biological target: Fuc(a1-2)[Gal(a1-3)]Gal(b1-4)GlcNAc
# Method in brief: as §1
# [28] = biological target: Fuc(a1-2)[Gal(a1-3)]Gal(b1-4)GlcNAc(b1-2)Man
# Method in brief: as §1
binder,measurement,setting,value
B1,glycan array binding signal (z-score),[1],1.63
same,glycan array binding signal (z-score),[2],0.634
same,glycan array binding signal (z-score),[3],-1.03
same,glycan array binding signal (z-score),[4],-0.732
same,glycan array binding signal (z-score),[5],0.673
same,glycan array binding signal (z-score),[6],0.942
same,glycan array binding signal (z-score),[7],1.37
same,glycan array binding signal (z-score),[8],0.322
same,glycan array binding signal (z-score),[9],-0.082
same,glycan array binding signal (z-score),[10],3.75
same,glycan array binding signal (z-score),[11],0.22
same,glycan array binding signal (z-score),[12],-0.667
same,glycan array binding signal (z-score),[13],-0.778
same,glycan array binding signal (z-score),[14],-0.864
same,glycan array binding signal (z-score),[15],-0.22
same,glycan array binding signal (z-score),[16],0.752
same,glycan array binding signal (z-score),[17],-0.076
same,glycan array binding signal (z-score),Fuc(a1-2)Gal6S(b1-4)Glc,-0.824
same,glycan array binding signal (z-score),[18],-0.956
same,glycan array binding signal (z-score),Fuc(a1-2)[Gal(a1-3)]Gal,-0.653
same,glycan array binding signal (z-score),[19],-0.519
same,glycan array binding signal (z-score),[20],0.312
same,glycan array binding signal (z-score),[21],-0.384
same,glycan array binding signal (z-score),[22],2.68
same,glycan array binding signal (z-score),[23],0.2
same,glycan array binding signal (z-score),[24],0.095
same,glycan array binding signal (z-score),[25],-1.05
same,glycan array binding signal (z-score),[26],-0.489
same,glycan array binding signal (z-score),[27],0.056
same,glycan array binding signal (z-score),[28],0.64

# Fetched one by one from the entries so far:
binder,measurement,setting,value
B1,glycan array binding signal (z-score),[28],0.64
same,glycan array binding signal (z-score),Fuc(a1-2)Gal6S(b1-4)Glc,-0.824

# Reference: the supplement of paper PMC8728848
